# Laboratory results from PubChem BioAssay AID1508600 (Functional Genomics Laboratory (NCATS/FGL), 2020).
# Screen size: about 53,000 sequences; about 3,700 (7%) were called active.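 The calls were made as follows: active = gene knockdowns whose robust z-score for IL-1 alpha signal is at least 2 or at most -2, so actives lie on both sides; inactive = the rest.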 This is one part of the list.
# Test: Components of the Cytosolic LPS Sensing Pathway: Gene Identification via Genome-wide siRNA Screen
# Details: RAW264.7 macrophages, IL-1a HTRF, actives lie on both sides, screened at 100 nM (by protocol), cells primed 5 h with Pam3CSK4 first
# From the text: Non-canonical inflammasome activation by cytosolic LPS is a critical component of the host response to Gram-negative bacterial infection, however we lack a comprehensive understanding of the cellular processes that control this pathway. Here we describe a genome-wide siRNA screen to identify genes regulating the mouse macrophage IL-1 alpha response to cytosolic LPS.
# RAW264.7 cells were maintained in complete DMEM media, comprising DMEM with 4.5 g/L glucose, 10% FBS (Gemini Bio-Products, West Sacramento, CA), 2 mM Glutamine (Lonza) and 20 mM HEPES (Lonza), hereafter complete DMEM.
# The RNAi screen was conducted in 384-well format using the Ambion Silencer Mouse Genome siRNA Library (#4391425), which consists of three unique, nonoverlapping, nonpooled siRNAs for each of 17,000 gene targets. siRNA reagents ([…]) were stamped into 384-well white flat-bottom microplates (Corning, 3570) using a Velocity11 VPrep liquid handling system (Agilent) integrated into a BioCel robotic platform (Agilent) in columns 1-22, leaving columns 23-24 empty for negative (Ambion, Negative control #1) and positive (mouse Casp4) controls, respectively. The median value of each plate's negative control column was used to normalize sample wells, and the positive control was used to assess transfection efficiency and assay performance.
# Lipofectamine RNAiMAX Transfection Reagent ([…]; Invitrogen) was added in […] serum-free, antibiotic-free media to plate wells using a Thermo Scientific Matrix WellMate and Microplate Stacker. Plates were incubated for 45 min at room temperature to allow for the sufficient formation of siRNA-lipid complexes. Cells were seeded at a density of 1x10^4 cells per well in 20 microL media containing 20% (vol/vol) FBS without antibiotics. The final concentration of siRNA in each well was 100 nM. Cells were cultured for 48h at 37 degrees C in 5% CO2 before addition of […] of TLR ligand Pam3CSK4 for 5 hours. The medium was then removed, replaced with […] growth media and cell were transfected with […] of LipidA and TransIT-TKO (Mirus) for 24 hour. At the end of the LipidA treatment, […] of supernatant was transferred to a 384 Greiner Bio-one non-binding low volume plate and […] of IL-1a HTRF reagent (Cisbio, 62MIL1APEH) was added and incubated at room temperature overnight. The plates were read on an EnVision plate reader (PerkinElmer). Cell viability was measured by adding 20ul Cell Titer Glo to the original plate and running a luminescence read on the EnVision. The quantified IL-1a signal for each siRNA gene-targeted well was divided by the median of the negative control wells and multiplied by 100 to achieve a negative control normalized value for each well/siRNA. This normalized value was then used to generate a robust z-score by first taking the log of each value and then by subtracting the median and dividing by the […].
row,Sequence,z-score
1,GGUCUUUGAAUGGAACAAUTT against Aldh7a1,inactive: -1.04
2,GGUGCAGACCUCUGACAAATT against Pdlim7,inactive: 1.18
3,GCGUAAAACUUCAAGAGCUTT against Ccdc120,inactive: 0.268
4,GGAGUUCGCACAGAAAUUCTT against Dhdh,inactive: -0.619
5,GCACCAUGAAUGGAGAUGATT against Prl2c5,active: -2.56
6,GGAAUUCAGUGCCUUAAAATT against Pgf,inactive: -0.294
7,GGUUGUGAACAGUCCACCCTT against Ski,inactive: 0.461
8,GAGAUGCCAUGACAAUGGGTT against 4931422A03Rik,inactive: -1.11
9,GGACAGGUGAAGAUAAGUATT against Mug2,inactive: -0.704
10,GCACAACCCUAGGCUAUCCTT against Tssk5,inactive: 0.953
11,GGAGUCUCUGUCAUGUGAUTT against Tlr2,inactive: -0.33
12,GGCACACACAUCAAAAGGATT against A530021J07Rik,active: -2.63
13,GCAUCUAUGGUGUUUCCUGTT against 9230106D20Rik,inactive: -0.136
14,GGAUAUCAUCAUGUCUUUCTT against Otop1,inactive: 1.29
15,CGGACACACAGUUGAUCCGTT against Cct6b,active: -2.15
16,GGUGGCCCAGUCUAAAGAATT against R74862,inactive: 0.872
17,GGAGAAGCAUAAAACAGUUTT against Ikzf5,inactive: -0.547
18,CCAAAUAAUUUCAGGGAAUTT against Vamp1,inactive: -0.467
19,GGCCUUUUCUCAAACAAACTT against 9330154K18Rik,inactive: -1.93
20,GGCCUUUACAUCAAUAUCATT against Zfp879,inactive: -0.0241
21,GGUAUAAACUAUUUGUACCTT against Gnb4,inactive: 0.221
22,GGUUAUUUGGUCCUCGUAGTT against Ccs,inactive: -0.707

# Some of the entries so far, bar-delimited.
row | Sequence | z-score
12 | GGCACACACAUCAAAAGGATT against A530021J07Rik | active: -2.63
13 | GCAUCUAUGGUGUUUCCUGTT against 9230106D20Rik | inactive: -0.136

# (further entries)

row,Sequence,z-score
1,GGCAUGAGAACUAGUCUGCTT against Duox2,inactive: -0.843
2,CCACAACCCUUGAGGAUGUTT against Samd11,inactive: -0.142
3,GGCUGUAUCCUGACAGCAATT against Olfr231,inactive: 0.213
4,CCUUCCUACAACAAGUGUGTT against Galnt1,active: 2.02
5,GCAUUGAAGAUCGAACACGTT against Kdm2a,inactive: 0.536
6,GGCAUAGGAAACACCAAGATT against Xdh,inactive: -0.307
7,GGUUUUAUCUCUUGUGCCCTT against Myl10,inactive: -0.565
8,CGAACUUCUUAAUAAACAGTT against Slc7a2,inactive: -0.0413
9,GGAGUUCAUUCUGAAUCAGTT against Drosha,inactive: -0.548
10,GGGACAUUUCCAUCCUUUUTT against Prdx6b,inactive: -1.28
11,GGAGUGUUUCCUGUCUCCUTT against Rad54l,inactive: -0.975
12,GGGCAUACAUGAUCCUCCUTT against Gpr39,inactive: 0.331
13,GGAUUGCUCCGAGAACAUCTT against Spsb2,inactive: -1.31
14,GGAUUGCUUCACCACAUGUTT against Fes,active: 2.44
15,GGAAAGUACCCUAGGAGUUTT against 4921509C19Rik,inactive: -1.6
16,GGCCCUAGCACUUUUUGUCTT against Ush2a,inactive: -0.101
17,GCUCUACAUGAAAACACUGTT against Gpat4,inactive: -0.28
18,CCUUAGCUUACCUAGUGGUTT against Tssc4,inactive: -0.653
19,GGUCGGUUCUCUUCACUGATT against 1700025G04Rik,inactive: -0.827
20,CCCAUCAAAAGAAUCCACATT against Snrnp70,active: -2.51
21,GGGAACAAGGAACUCAAAGTT against Cadm1,inactive: 1.69
22,GGUCGUGCGAUCCACAGAUTT against Vangl2,inactive: -0.44

row,Sequence,z-score
1,GGAAAACUCUCUGCAUUAUTT against Stx7,inactive: -0.254
2,GGACAAUUAUGAGAUGCACTT against Med22,inactive: -0.861
3,GGGCUUCUGAAGAAGAUGATT against Cdc25b,inactive: -1.21
4,GGCAAUUAAUUGACAGUUATT against Myf5,inactive: 1.66
5,GCAAGGAGUUUAUGUGAGUTT against Olfr170,inactive: 0.297
6,CCCUCCGUGUUUUUAAGAUTT against Tbl2,inactive: 0.176
7,GGAGUUUGUGCAGUUUGUGTT against Nfix,inactive: -0.414
8,GGCAGGAUAUAACCAUCCUTT against Zscan29,inactive: -1.79
9,CCAUAUGGUCAUUAUACCUTT against Ttc19,inactive: -0.742
10,GGAUUUUCACAUUGCAUCUTT against Dmrtc1a,inactive: 1.49
11,GGAUGAAAAUCUCUGUCCUTT against Trpa1,inactive: 0.604
12,GGAAGUUCGUGUGAAAGUUTT against Uhrf2,inactive: 1.43
13,GCCCAUCACAAAUAAACAATT against B230340J04Rik,inactive: -1.17
14,GCUCGGCUUUAGAGACCUATT against Cox19,inactive: 0.379
15,GGAACAAAGAGGUUAAAGGTT against Olfr1448,inactive: 0.513
16,GGAUCUGCCUACACCUACATT against Slc7a14,inactive: 0.442
17,GGUUAUUGAUUUGGUGAAGTT against 4930550L24Rik,inactive: 1.03
18,GGUAUUCUUUGAUAAGAUCTT against Ephb1,inactive: -0.0305
19,GGAGUGAUGUCCAUACUGGTT against Leap2,active: -2.57
20,CCUCUGCUACUCUUAUUGUTT against Ttn,inactive: -0.523
21,GGCAAGCACAAUGAUCAUUTT against Trappc11,active: -2.36
22,GGUUCUUUUUGACGGUGGUTT against Rpl14,inactive: 0.368

# Reprinted at random: 6 entries already listed, in no set order.
row,Sequence,z-score
13,GCCCAUCACAAAUAAACAATT against B230340J04Rik,inactive: -1.17
7,GGAGUUUGUGCAGUUUGUGTT against Nfix,inactive: -0.414
7,GGUUUUAUCUCUUGUGCCCTT against Myl10,inactive: -0.565
11,GGAUGAAAAUCUCUGUCCUTT against Trpa1,inactive: 0.604
14,GGAUUGCUUCACCACAUGUTT against Fes,active: 2.44
6,GGAAUUCAGUGCCUUAAAATT against Pgf,inactive: -0.294

# (continued)

row,Sequence,z-score
1,GGAUCAGCAACAGUCUCCATT against 1700029M20Rik,active: -2.01
2,GGCGACAUGAAAGAAGGCATT against Klk6,active: 2.61
3,GGACUUCUACACCUCGAAATT against Amz2,inactive: -1.05
4,GCAUCACUGUCUAAACUUGTT against Pgk2,inactive: -0.324
5,GGUUGGAUACUCGUCUUCATT against Olfr421-ps1,inactive: 1.16
6,GUUGACUGUACCCGAUACATT against Mxd3,inactive: -0.0552
7,GCGGAUUUAGUGGCUGGCUTT against Opn5,inactive: 0.214
8,CCAUUUUGAAGCAUAGUACTT against Uba6,inactive: -0.142
9,GGUAAUCACAUCCCAGGUGTT against Olfr370,inactive: 0.144
10,GUGAUUGCCAAGAAGUUCUTT against Olfr1033,inactive: 1.82
11,CCUUAUAGUCCAGUAUUUUTT against Slf2,active: 2.71
12,GCUCUACGAUGCAGUUUUUTT against Trp53i11,inactive: -0.657
13,GGAAAAGAGCAAACUUAUUTT against Shc3,inactive: 0.37
14,GGACUUUCUGAUGGACUUGTT against Sapcd1,inactive: 1.59
15,GGUGUAAGUCGGUAUAUUUTT against Cdkn2aip,inactive: 0.572
16,GGAUAAACCCUACGUUCUATT against Slc44a4,inactive: 0.658
17,CCCUUUGUAGUUACUAAACTT against Zwint,inactive: 1.26
18,GGUCUGAAGACAUCCUAGUTT against Pabpc4,inactive: 1.83
19,GGUUUUUAUCGACACUAUCTT against Chrna1,inactive: 1.06
20,GGGAGAGGACGACAUUUACTT against Otx2,inactive: 0.645
21,GGUGGUUCCCAAUUCACCUTT against Htra3,inactive: -0.903
22,CCGUACAUCGAGAAAUACATT against Hal,active: 2.36

row,Sequence,z-score
1,GGUGUUGAACGAGUGGAUCTT against Gtf3c6,inactive: 0.481
2,GCAAGCUGAGCAUUGAUGATT against Csk,inactive: 0.0106
3,GGAGUACGUGCUAGAUAAGTT against Tram1l1,inactive: -0.302
4,CCGGGUUCUUUGAAGUGACTT against Selenow,inactive: -1.04
5,GGAUGUGACUUCGAGAGCATT against Cxcr4,inactive: -0.491
6,GGAAUACCUCUACUGACAGTT against Mok,inactive: -1.37
7,GGUUGACGAAAUGACUAUATT against Adh4,inactive: -0.105
8,GGAACAUGUUAAAAACCCUTT against Ubtf,inactive: -1.1
9,GCGCAUGCAACAGAAGUAUTT against Pde4dip,inactive: -1.4
10,CGGCUAAGUUGUGCGAUGUTT against Iffo2,inactive: 0.159
11,GGACACUACGUGCUCAGUATT against Tcl1b5,inactive: -0.645
12,CCGCUACCUUAAGCACCUATT against Terf2ip,inactive: 0.231
13,GCCCUUGGCAUUACUGAGATT against Serpine2,inactive: 1.56
14,GGAAAUCUCAGAAAUCAAATT against Pmf1,inactive: -1.15
15,CGAGAUGUCCCAGAAUCAUTT against Wdr75,active: -2.26
16,GCUUGCUCUCUCAGUAGUATT against Olfr133,inactive: 0.872
17,GUCAAAAUGACCAAAGAUGTT against Acot2,inactive: -0.421
18,CGGCAUCGUCAGCUAUUAATT against Pip5k1b,inactive: 0.482
